Where a SMILES comes first, the peptide text is derived from it. The star is where a group is joined. Palmitoyl = CCCCCCCCCCCCCCCC(=O)*
Assay: Isothermal titration calorimetry of heparin into HBPA solution
Assay type: binding
Settings: ITC, Table 3G
Description: Isothermal titration calorimetry was used to titrate increments of heparin independently into both the HBPAs and measured the heat released upon binding as a function of the molar ratio. The data obtained was integrated and fitted to a nonlinear function as previously described (Fromm, J. R., et al, “Differences in the Interaction of Heparin with Arginine and Lysine and the Importance of These Basic-Amino-Acids in the Binding of Heparin to Acidic Fibroblast Growth-Factor” Arch. Biochem. Biophys. 323 (1997) 279) to obtain an association constant of 10^7 in both cases (see FIGS. 3E and 3F). Despite similarity in their binding constants, the binding interaction of HBPA-1 and HBPA-2 were energetically very different. […] Such results can be explained with reference to their respective structures. HBPA-1 has hydrophobic residues on the periphery of its peptide chain and the increase in entropy is possibly due to displacement of solvent water molecules from these residues upon heparin interaction.
Characterization of the self-assembly. […] The images were analyzed using the Leica LCS imaging software. […] A frequency sweep experiment was performed at 3% strain with a ten-minute wait time (both determined by independently performing an amplitude sweep and a time strain experiment) to obtain 17 data points between angular frequencies of 0.1 to 10 rad/s. […]

| SMILES | thermodynamic driving force of heparin interaction |
| --- | --- |
| CCCCCCCCCCCCCCCC(=O)N[C@@H](C)C(=O)N[C@@H](C)C(=O)N[C@@H](C)C(=O)N[C@@H](C)C(=O)NCC(=O)NCC(=O)NCC(=O)N[C@@H](CC(C)C)C(=O)N[C@@H](CCCNC(=N)N)C(=O)N[C@@H](CCCCN)C(=O)N[C@@H](CCCCN)C(=O)N[C@@H](CC(C)C)C(=O)NCC(=O)N[C@@H](CCCCN)C(=O)N[C@@H](C)C(N)=O [HBPA-1] (Palmitoyl-AAAAGGGLRKKLGKA-NH2) | predominantly driven by entropic changes |
| CCCCCCCCCCCCCCCC(=O)N[C@@H](C)C(=O)N[C@@H](C)C(=O)N[C@@H](C)C(=O)N[C@@H](C)C(=O)NCC(=O)NCC(=O)NCC(=O)N[C@@H](CC(C)C)C(=O)N[C@@H](CC(C)C)C(=O)NCC(=O)N[C@@H](C)C(=O)N[C@@H](CCCNC(=N)N)C(=O)N[C@@H](CCCCN)C(=O)N[C@@H](CCCCN)C(=O)N[C@@H](CCCCN)C(N)=O [HBPA-2] (Palmitoyl-AAAAGGGLLGARKKK-NH2) | predominantly enthalpic |

Source: patent US7851445B2, “Angiogenic heparin-binding epitopes, peptide amphiphiles, self-assembled compositions and related methods of use” (Northwestern University, priority 2005, dated 2010)
